According to the supplement of paper PMC8728848:
The other results are listed elsewhere or left out.

Assays:
Assay in all cases: glycan array binding signal (z-score within array); higher = stronger binding
Conditions in all cases: glycan notation: IUPAC condensed, linker removed
GalNAc(b1-4)Gal(b1-4)Glc = target: GalNAc(b1-4)Gal(b1-4)Glc
In short: (§1)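 From the Consortium for Functional Glycomics database, 3228 arrays were curated, keeping only those whose protein sequence was available. Binding is given as a within-array Z-score averaged across arrays sharing a protein sequence and across linkers. Negative Z-scores can be read as non-binding.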

GalNAc(b1-4)GlcNAc = target: GalNAc(b1-4)GlcNAc
In short: as §1

[1] = target: GalNAc(b1-4)GlcNAc(b1-2)Man
In short: as §1

[2] = target: GalNAc(b1-4)GlcNAc(b1-2)Man(a1-3)[GalNAc(b1-4)GlcNAc(b1-2)Man(a1-6)]Man(b1-4)GlcNAc(b1-4)GlcNAc
In short: as §1

[3] = target: GalNAc(b1-4)GlcNAc(b1-3)GalNAc(b1-4)GlcNAc
In short: as §1

GalNAc(b1-4)GlcNAc6S = target: GalNAc(b1-4)GlcNAc6S
In short: as §1

GalNAc(b1-6)GalNAc = target: GalNAc(b1-6)GalNAc
In short: as §1

GalNAc3S(b1-4)GlcNAc = target: GalNAc3S(b1-4)GlcNAc
In short: as §1

GalNAc3S(b1-4)GlcNAc3S = target: GalNAc3S(b1-4)GlcNAc3S
In short: as §1

[4] = target: GalNAc3S(b1-4)[Fuc(a1-3)]GlcNAc
In short: as §1

GalNAc4S6S(b1-4)GlcNAc = target: GalNAc4S6S(b1-4)GlcNAc
In short: as §1

GalNAc6S(b1-4)GlcNAc = target: GalNAc6S(b1-4)GlcNAc
In short: as §1

Glc(a1-4)Glc = target: Glc(a1-4)Glc
In short: as §1

[5] = target: Glc(a1-4)Glc(a1-4)Glc(a1-4)Glc
In short: as §1

Glc(a1-6)Glc(a1-6)Glc = target: Glc(a1-6)Glc(a1-6)Glc
In short: as §1

[6] = target: Glc(a1-6)Glc(a1-6)Glc(a1-6)Glc
In short: as §1

Glc(b1-4)Glc = target: Glc(b1-4)Glc
In short: as §1

Glc(b1-6)Glc = target: Glc(b1-6)Glc
In short: as §1

GlcA(b1-3)GlcNAc = target: GlcA(b1-3)GlcNAc
In short: as §1

GlcA(b1-6)Gal = target: GlcA(b1-6)Gal
In short: as §1

[7] = target: GlcA3S(b1-3)Gal(b1-4)GlcNAc(b1-2)Man
In short: as §1

[8] = target: GlcNAc(a1-3)Gal(b1-4)GlcNAc
In short: as §1

[9] = target: GlcNAc(a1-4)Gal(b1-3)GlcNAc
In short: as §1

[10] = target: GlcNAc(a1-4)Gal(b1-4)GalNAc
In short: as §1

[11] = target: GlcNAc(a1-4)Gal(b1-4)GlcNAc
In short: as §1

[12] = target: GlcNAc(a1-4)Gal(b1-4)GlcNAc(b1-3)Gal(b1-4)Glc
In short: as §1

[13] = target: GlcNAc(a1-4)Gal(b1-4)GlcNAc(b1-3)Gal(b1-4)GlcNAc
In short: as §1

[14] = target: GlcNAc(a1-4)Gal(b1-4)GlcNAc(b1-3)Gal(b1-4)GlcNAc(b1-3)Gal(b1-4)GlcNAc
In short: as §1

[15] = target: GlcNAc(a1-6)Gal(b1-4)GlcNAc
In short: as §1

[16] = target: GlcNAc(b1-2)Gal(b1-3)GalNAc
In short: as §1

[17] = target: GlcNAc(b1-2)Man(a1-3)[GlcNAc(b1-2)Man(a1-6)]Man(b1-4)GlcNAc(b1-4)GlcNAc
In short: as §1

[18] = target: GlcNAc(b1-2)Man(a1-3)[GlcNAc(b1-2)Man(a1-6)]Man(b1-4)GlcNAc(b1-4)[Fuc(a1-6)]GlcNAc
In short: as §1

[19] = target: GlcNAc(b1-2)Man(a1-3)[GlcNAc(b1-4)][GlcNAc(b1-2)Man(a1-6)]Man(b1-4)GlcNAc(b1-4)GlcNAc
In short: as §1

[20] = target: GlcNAc(b1-2)Man(a1-3)[GlcNAc(b1-4)][GlcNAc(b1-2)Man(a1-6)]Man(b1-4)GlcNAc(b1-4)[Fuc(a1-6)]GlcNAc
In short: as §1

[21] = target: GlcNAc(b1-2)[GlcNAc(b1-4)]Man(a1-3)[GlcNAc(b1-2)Man(a1-6)]Man(b1-4)GlcNAc(b1-4)GlcNAc
In short: as §1

[22] = target: GlcNAc(b1-2)[GlcNAc(b1-4)]Man(a1-3)[GlcNAc(b1-4)][GlcNAc(b1-2)Man(a1-6)]Man(b1-4)GlcNAc(b1-4)GlcNAc
In short: as §1

[23] = target: GlcNAc(b1-2)[GlcNAc(b1-4)]Man(a1-3)[GlcNAc(b1-4)][GlcNAc(b1-2)[GlcNAc(b1-6)]Man(a1-6)]Man(b1-4)GlcNAc(b1-4)GlcNAc
In short: as §1

B1: PX14351B-bth-512-36-512 (Bacteroides thetaiotaomicron) (protein)
chain: ASETQQWKTLEDTRSALMGVYGLTRAALADNNTHWICGDLRKGDFTVYKRSDLQAVSDNELNKPYDLLKKVSNWRRFYAVINAASVFMEKAPRTVELDRSYSEQNLKYDIAQVRALRAFAYFYMVRIWGDVPLVTYSYDNGTFPSMPRTDAQTVLSYAKAELLTAIEDLPYQYGTQTNLYYGSYGAQWQGKLFNKLSAYSVLAHICAWQGNYAEAETYSAFIIDHASEINAKYTSIADLTSETGLFYSNASVKGSRILGFNFAHNDNEATQSGHLEQLTLAYPLVQKSYPEIYISKDSLFSIFTNFDDLRFGIIDTIKYSSYYVQNLNEETPVFSKIKIIQDGSAKDNDFGVFGSSIVFTRLEDITLLRAEALCALNRSTEAVSYLNMIRTNRGLREVSFKKDFGNNRESLIAEIFEERRRELMGEGWRWYDLVRRQKLMKDNEAFLRLISSGGIYWPVSEDIITANSQIEQNEFWK
**Q.** What does the source list for B1?
**A.** glycan array binding signal (z-score) (GalNAc(b1-4)Gal(b1-4)Glc): -0.134; glycan array binding signal (z-score) (GalNAc(b1-4)GlcNAc): -0.183; glycan array binding signal (z-score) [1]: -0.064; glycan array binding signal (z-score) [2]: 0.664; glycan array binding signal (z-score) [3]: 0.118; glycan array binding signal (z-score) (GalNAc(b1-4)GlcNAc6S): -0.306; glycan array binding signal (z-score) (GalNAc(b1-6)GalNAc): -0.059; glycan array binding signal (z-score) (GalNAc3S(b1-4)GlcNAc): -0.173; glycan array binding signal (z-score) (GalNAc3S(b1-4)GlcNAc3S): -0.185; glycan array binding signal (z-score) [4]: -0.329; glycan array binding signal (z-score) (GalNAc4S6S(b1-4)GlcNAc): -0.242; glycan array binding signal (z-score) (GalNAc6S(b1-4)GlcNAc): -0.158; glycan array binding signal (z-score) (Glc(a1-4)Glc): -0.324; glycan array binding signal (z-score) [5]: -0.295; glycan array binding signal (z-score) (Glc(a1-6)Glc(a1-6)Glc): -0.359; glycan array binding signal (z-score) [6]: -0.137; glycan array binding signal (z-score) (Glc(b1-4)Glc): -0.293; glycan array binding signal (z-score) (Glc(b1-6)Glc): 0.065; glycan array binding signal (z-score) (GlcA(b1-3)GlcNAc): -0.346; glycan array binding signal (z-score) (GlcA(b1-6)Gal): -0.339; glycan array binding signal (z-score) [7]: -0.139; glycan array binding signal (z-score) [8]: -0.287; glycan array binding signal (z-score) [9]: -0.297; glycan array binding signal (z-score) [10]: -0.223; glycan array binding signal (z-score) [11]: -0.287; glycan array binding signal (z-score) [12]: -0.26; glycan array binding signal (z-score) [13]: -0.245; glycan array binding signal (z-score) [14]: -0.25; glycan array binding signal (z-score) [15]: 0.016; glycan array binding signal (z-score) [16]: 0.023; glycan array binding signal (z-score) [17]: -0.287; glycan array binding signal (z-score) [18]: -0.091; glycan array binding signal (z-score) [19]: -0.34; glycan array binding signal (z-score) [20]: -0.224; glycan array binding signal (z-score) [21]: -0.199; glycan array binding signal (z-score) [22]: -0.105; glycan array binding signal (z-score) [23]: -0.392
